From PubChem BioAssay AID2685 (National Center for Advancing Translational Sciences (NCATS), 2010)
This is one part of the list. These are further read-outs of the screen, such as a control signal, another cell line or another target. No call is given for them. The list favours compounds with an active or inconclusive main result. The note in brackets gives the kind of curve behind each potency; many fits are weak.

Assay: qHTS Assay for Lipid Storage Modulators in Drosophila S3 Cells;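 on cell number change: cells counted by Cell Tracker Red CMTPX staining in the red channel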
Settings: BODIPY lipid droplet fluorescence, 18-24 h; for cell number change: measured here: cell count max response, cells fed with added oleic acid
Procedure, shortened: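 Drosophila S3 cells loaded with oleic acid (400 uM, as added) and compounds at several concentrations; lipid droplets imaged by 488-nm laser-scanning cytometry, 500–530 nm intensity and object ratio to cell channel. Percent activity normalized to 20 uM Triacsin C.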

[1] = measured here: cell number channel AC50, cells fed with added oleic acid
[2] = measured here: lipid fluorescence (Fed channel) AC50, cells fed with added oleic acid

Row | Structure (SMILES) | cell number change | AC50 [1] | AC50 [2]
1 | CCCc1ccc(C(C)NC(=S)NC2CCCCC2)cc1 (stereo not drawn) | -59.7% | 18.4 µM [falling, single point] | 29.1 µM [falling, single point]
2 | NNC(=O)c1sccc1OCc1ccc(Cl)cc1Cl | 10.6% | – | 0.103 µM [rising, full curve, poor fit]
3 | Cc1ccc(NC(=O)C2Cc3ccccc3CN2C(=O)c2ccco2)cc1S(=O)(=O)N(C)C (stereo not drawn) | -1.68% | – | 6.51 µM [rising, single point]
4 | Cc1ccccc1CNC(=O)c1ccc(CSCc2ccccc2)cc1 | – | 6.51 µM [rising, single point] | –
5 | COc1cccc(C2CC(c3cccc(NS(C)(=O)=O)c3)=NN2C(=O)c2ccccc2)c1OC (stereo not drawn) | -32.6% | 4.11 µM [rising, single point] | –
6 | N#Cc1ccc(-c2ccc(OCC(O)CN3CCOCC3)cc2)cc1 (stereo not drawn) | -31.5% | 25.9 µM [falling, single point] | 29.1 µM [falling, single point]
7 | COc1cccc(NC(=O)c2cccnc2)c1 | – | – | 0.82 µM [falling, full curve, poor fit]
8 | COc1cccc(Nc2nnc(SCC(=O)N3CC(C)OC(C)C3)s2)c1 (stereo not drawn) | -54% | 20.6 µM [falling, partial curve, poor fit] | 29.1 µM [falling, single point]
9 | CC(C)C(OC(=O)CN1C(=O)COc2ccccc21)C(=O)NC1CCCCC1 (stereo not drawn) | 7.39% | – | 29.1 µM [falling, single point]
10 | CCOc1ccc(C/C(N)=N/n2cnnc2)cc1 | -16% | – | –
11 | O=S(=O)(NCc1ccccc1)c1ccc(S(=O)(=O)N(Cc2ccccn2)Cc2ccco2)cc1 | -24.4% | – | 6.51 µM [rising, single point]
12 | CCc1cc(=O)oc2c(CN3CCCC3)c(O)c(Cl)cc12 | -12.3% | 0.00651 µM [falling, full curve, poor fit] | 0.651 µM [falling, single point]
13 | CCn1c(=O)c2c3c(sc2n2c(=S)[nH]nc12)CCC3 | -28.2% | – | 16.4 µM [falling, single point]
14 | O=C(NCCN1C(=O)S/C(=C\c2ccc(Cl)cc2)C1=O)c1ccc(F)c(S(=O)(=O)N2CCOCC2)c1 | 12.8% | – | –
15 | COc1ccc(N2C(=O)C(Cl)=C(Nc3ccccc3OC)C2=O)cc1 | – | 0.58 µM [rising, single point] | 6.51 µM [rising, single point]
16 | O=C(O)CCc1ccc(-c2cccs2)o1 | -31.8% | 29.1 µM [falling, single point] | 5.17 µM [falling, partial curve]
17 | COC(=O)c1ccc(NS(=O)(=O)c2ccc(-c3cc(C)no3)s2)cc1 | 6.27% | – | –
18 | CCCC1=Nc2cc(C(=O)NCCCN3CCOCC3)ccc2Sc2ccccc21 | 16% | – | 20.6 µM [rising, single point]
19 | Cc1ccc(N=Nc2cc(C)ccc2N)cc1 | -72.1% | – | –
20 | Cc1occc1C(=O)NC1CCCCCC1 | 11.8% | – | –

Row | Structure (SMILES) | cell number change | AC50 [1] | AC50 [2]
21 | Cc1[nH]n(-c2ccccc2)c(=O)c1C=Nc1cccc2cccnc12 | 2.28% | – | 0.092 µM [rising, full curve, poor fit]
22 | Cc1ccc(S(=O)(=O)C2(C(=O)O)CCCC2)cc1C | -21.4% | – | 23.1 µM [falling, partial curve, poor fit]
23 | CCOc1ccc(C2/C(=C(\O)c3ccc4c(c3)OCCO4)C(=O)C(=O)N2CCCN2CCOCC2)cc1OC (stereo not drawn) | 0.472% | – | 29.1 µM [rising, single point]
24 | CCc1ccc(CNC(=O)CCC(=O)N2Cc3cccc(OC)c3Oc3ncccc32)cc1 | 5.6% | – | 29.1 µM [rising, single point]
25 | CCOC(=O)N(CC)OC(=O)Nc1ccc(Cl)cc1 | -42.6% | 3.26 µM [falling, full curve] | 4.11 µM [falling, full curve]
26 | CC(C)Cc1ccc(S(=O)(=O)N2CCN(c3ccccn3)CC2)cc1 | 40.5% | 29.1 µM [rising, single point] | 1.16 µM [rising, full curve]
27 | N#Cc1sc(NCc2ccccc2)nc1Cl | 3.85% | 0.651 µM [falling, single point] | 0.651 µM [falling, single point]
28 | COCCN(C(=O)COC(=O)c1ccccc1Oc1ccccc1)c1c(N)n(Cc2ccccc2)c(=O)[nH]c1=O | -7.08% | – | 29.1 µM [falling, single point]
29 | CCOc1cc(C(=O)N(C)CC(=O)Nc2cccc(F)c2)ccc1OCC(=O)N1CCOCC1 | -25% | 0.366 µM [rising, single point] | –
30 | Cc1ccc([C@@H]2CC=C(C(=O)O)CN2S(=O)(=O)c2ccc(C)cc2)cc1 | 5.61% | 0.82 µM [falling, full curve, poor fit] | 0.82 µM [falling, full curve]
31 | Cc1cc2ncn(-c3ncnc4sc(C)c(C)c34)c2cc1C | -18% | – | –
32 | COc1ccc(NC(=S)N2CCN(C/C=C/c3ccccc3)CC2)cc1OC | -13.2% | 4.61 µM [rising, single point] | –
33 | CCOC(=O)C1CCN(C(=O)c2cc3c(ccc4ccccc43)o2)CC1 | 12.7% | – | –
34 | COc1ccc(NC(=S)NCC(O)c2ccccc2)c(OC)c1 (stereo not drawn) | – | – | 16.4 µM [rising, single point]
35 | CCOC(=O)c1c(C)[nH]c(C)c1C(=O)COC(=O)c1cccc(C)c1O | 3.65% | – | –
36 | N#Cc1ccc(C(=O)Nc2nc(SCc3ccc(Cl)cc3)n[nH]2)cc1 | 114% | – | –
37 | C#CCOc1ccc(C2C3=C(CC(C)(C)CC3=O)N(CC(=O)O)C3=C2C(=O)CC(C)(C)C3)cc1OC | – | – | 5.17 µM [falling, single point]
38 | Cc1ccc(N2CC(C(=O)Nc3nc4ccc(S(C)(=O)=O)cc4s3)CC2=O)cc1C (stereo not drawn) | 14.7% | – | 29.1 µM [rising, single point]
39 | Cn1c(=O)c2sccc2n(CC(=O)NCCC2=CCCCC2)c1=O | 8.12% | – | –

Molecules above with a cyano group:
Row | Structure (SMILES) | cell number change | AC50 [1] | AC50 [2]
6 | N#Cc1ccc(-c2ccc(OCC(O)CN3CCOCC3)cc2)cc1 (stereo not drawn) | -31.5% | 25.9 µM [falling, single point] | 29.1 µM [falling, single point]
27 | N#Cc1sc(NCc2ccccc2)nc1Cl | 3.85% | 0.651 µM [falling, single point] | 0.651 µM [falling, single point]
36 | N#Cc1ccc(C(=O)Nc2nc(SCc3ccc(Cl)cc3)n[nH]2)cc1 | 114% | – | –
